Measured values taken from PMC4829694.
No constants are given. Whether binding was seen depends on the method and setting. Binding seen in cells or lysates may run through a third protein. A yes stands for co-enrichment or nearness to the bait. Other partners may have been found.

Protein sequences, listed by entry. Tags and fused reporters are not part of them.
UniProt P23772: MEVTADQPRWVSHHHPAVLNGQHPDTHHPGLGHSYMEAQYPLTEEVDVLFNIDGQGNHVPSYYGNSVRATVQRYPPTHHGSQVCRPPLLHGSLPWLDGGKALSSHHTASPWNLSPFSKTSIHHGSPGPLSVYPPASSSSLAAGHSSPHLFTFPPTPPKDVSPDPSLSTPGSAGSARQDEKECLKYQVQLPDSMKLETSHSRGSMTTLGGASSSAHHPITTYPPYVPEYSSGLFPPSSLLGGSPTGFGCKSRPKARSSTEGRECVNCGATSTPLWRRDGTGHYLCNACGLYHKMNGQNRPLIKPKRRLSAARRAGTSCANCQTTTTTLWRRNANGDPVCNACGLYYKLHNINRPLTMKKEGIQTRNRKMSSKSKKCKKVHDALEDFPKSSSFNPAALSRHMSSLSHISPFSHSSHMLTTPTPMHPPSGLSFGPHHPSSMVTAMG
UniProt P31749: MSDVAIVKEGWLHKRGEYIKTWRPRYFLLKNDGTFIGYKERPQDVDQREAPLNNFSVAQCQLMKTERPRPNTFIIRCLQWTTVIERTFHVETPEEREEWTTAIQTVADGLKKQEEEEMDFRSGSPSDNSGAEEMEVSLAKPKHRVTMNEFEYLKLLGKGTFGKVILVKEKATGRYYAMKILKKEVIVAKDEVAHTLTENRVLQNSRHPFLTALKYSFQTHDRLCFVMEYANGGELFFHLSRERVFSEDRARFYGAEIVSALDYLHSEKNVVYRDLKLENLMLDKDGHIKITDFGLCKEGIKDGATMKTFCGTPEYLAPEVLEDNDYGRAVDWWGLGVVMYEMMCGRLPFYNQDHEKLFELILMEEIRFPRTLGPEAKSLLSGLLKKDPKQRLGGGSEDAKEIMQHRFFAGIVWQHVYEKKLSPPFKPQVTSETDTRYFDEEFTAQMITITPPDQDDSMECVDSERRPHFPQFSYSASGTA

Biological target: Flag-tagged Gata3 wild type (UniProt P23772)
Assay: affinity purification with mass spectrometry; Flag-tagged Gata3 complexes immunopurified from 293T cells, resolved by SDS-PAGE (in-gel kinase assay with GST-Gata3 as substrate); the 55-kDa band analysed by LC-MS/MS

**Q.** With “Akt1 (endogenous, found in Gata3 complexes from 293T cells) (from UniProt P31749 1-480) (enzyme)” as the substance, how does the binding read?
**A.** binds
